Conditions: acetic acid/pH treated culture

CC(=O)O [Acetic acid, acetic acid]
residual acetate higher than the untreated cultures (end of experiment): 5200 mg/L | residual acetate in the culture (end of experiment (96 h)): 9650 ± 150 mg/L

Source: patent US9416347B2, “Method of treating bacterial contamination in a microalgae culture with pH shock” (Heliae Development LLC, priority 2014, dated 2016)
